In all, about 330,000 compounds went through this assay and about 7,700 (2.3%) were called active. The shares of active, inactive and inconclusive entries below differ from those in the screen. The call rests on the fitted dose curve; in most records, active means well fitted inhibition curve with a large enough effect; inconclusive means small, poorly fitted or top-dose-only effect, or effect the other way; inactive means flat fitted curve, though single readings scatter. Potencies beside an inconclusive call are fits to weak or partial responses and may not hold up.
Experiment: qHTS screen for small molecules that inhibit ELG1-dependent DNA repair in human embryonic kidney (HEK293T) cells expressing luciferase-tagged ELG1; further: nearly all actives have a fitted effect of over 55% in size
Conditions: HEK293T ELG1-luciferase reporter, luminescence, 16 h, DNA damage induced by 5-fluorouridine; activity change, negative = inhibition: at 46.1 µM (top of the series)
Method in brief: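 In this reporter screen, reduction of luminescence relative to DMSO vehicle indicated activity. Compounds and 5-fluorouridine were added together to 2,000 cells per well, incubated for 16 hr at 37 °C, then developed with ONE-Glo.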
On the % scale 0 is the no-effect control and ±100 the full control effect; potency means the concentration at half of the fitted maximal effect.

Row | SMILES | activity change, negative = inhibition | Potency
1 | N#Cc1ccccc1CN1C(=O)NC2(CCCCCC2)C1=O | inactive: 11.3% | –
2 | CN(C)S(=O)(=O)c1cccc(N=C2NN=C(c3ccccc3)CS2)c1 | – | inconclusive: 32.6 µM [inhibitor, partial curve, poor fit]
3 | COc1ccc(N(C)C(=S)Oc2ccc(C(=O)Nc3ccccc3)cc2)cc1 | – | inconclusive: 16.4 µM [inhibitor, partial curve]
4 | O=C(NCCc1ccccc1)c1ccc(S(=O)(=O)N2CCCC2)cc1 | – | inconclusive: 18.3 µM [activator, single point]
5 | Cc1nc(/N=C\N(C)C)sc1C(=O)Nc1ccccc1 | – | inconclusive: 20.6 µM [activator, partial curve]
6 | CCC(=O)Nc1ccccc1C(=O)OCC(=O)c1ccc2ccccc2c1 | inactive: -20% | –
7 | O=C(CN1CCN(c2ccc(F)cc2)CC1)Nc1cccc(C(F)(F)F)c1 | – | inconclusive: 35.5 µM [inhibitor, single point]
8 | N#Cc1ccc(OCC(=O)OCC(=O)NC2CC2)cc1 | inactive: 23.7% | –
9 | C=C1CCC[C@]2(C)C[C@H]3OC(=O)C(CN4CCCCC4CO)[C@H]3CC12 (some centres not stated) | inactive: 9.6% | –
10 | CCCS(=O)(=O)N1CCC(C(=O)c2cccc(C(F)(F)F)c2)CC1 | – | inconclusive: 25.9 µM [inhibitor, single point]
11 | Fc1ccccc1-c1nc2ccccc2[nH]1 | – | inconclusive: 18.3 µM [activator, partial curve]
12 | Cc1cc(/C=C2/NC(=S)NC2=O)c(C)n1-c1cccnc1 | inactive: 6.22% | –
13 | O=C(C1CCN(S(=O)(=O)N2CCOCC2)CC1)N1CCc2ccccc21 | – | inconclusive: 0.146 µM [inhibitor, single point]
14 | O=C(c1cc(COc2ccc(F)cc2Cl)on1)N1C[C@H]2CC[C@H]1C2 | – | inconclusive: 18.3 µM [activator, partial curve]
15 | CCOc1cc(C(=O)NCC2CCCO2)cc(OCC)c1OCC (configuration not stated) | inactive: -23.5% | –
16 | CCC/C(O)=C1\C(=O)CC(c2ccccc2)CC1=NCCc1c(C)[nH]c2ccc(C)cc12 (configuration not stated) | – | inconclusive: 4.61 µM [inhibitor, partial curve, poor fit]
17 | CN1/C(=C\C(=O)c2oc3ccccc3c2N)C(C)(C)c2ccccc21 | – | active: 13 µM
18 | Cc1ncsc1C(=O)N1N=C2/C(=C/c3ccccc3)CCCC2C1c1ccccc1 (configuration not stated) | – | inconclusive: 23.1 µM [inhibitor, single point]
19 | COc1ccc(-c2csc(NC(=O)CN3C(=O)C4CCCCC4C3=O)n2)c(OC)c1 (configuration not stated) | inactive: -12.2% | –
20 | CN(C)c1ccc(/C=C/c2cc[n+](C)cc2)cc1 | – | inconclusive: 4.61 µM [inhibitor, single point]
21 | COc1ccc(NC(=O)/C(=C\c2cc(OC)c(OC)cc2[N+](=O)[O-])NC(=O)c2ccccc2)cc1 | inactive: -12.6% | –
22 | NC(=O)C1Cc2ccccc2CN1C(=O)c1nn(Cc2ccccc2)c(=O)c2ccccc12 (configuration not stated) | – | inconclusive: 16.4 µM [inhibitor, partial curve]
23 | Cn1ccs/c1=N\S(=O)(=O)c1ccc(Br)cc1 | inactive: -9.27% | –
24 | Nc1nonc1C(=O)NCCNCc1c(OCc2ccccc2F)ccc2ccccc12 | – | inconclusive: 18.4 µM [inhibitor, single point]

For reference, some entries already given.
Row | SMILES | activity change, negative = inhibition | Potency
1 | N#Cc1ccccc1CN1C(=O)NC2(CCCCCC2)C1=O | inactive: 11.3% | –
2 | CN(C)S(=O)(=O)c1cccc(N=C2NN=C(c3ccccc3)CS2)c1 | – | inconclusive: 32.6 µM [inhibitor, partial curve, poor fit]

Remaining list, next part

Row | SMILES | activity change, negative = inhibition | Potency
25 | COc1ccc(NC2CCCN(C(=O)CSc3ccccn3)C2)cc1OC (configuration not stated) | inactive: -2.14% | –
26 | CC(C)c1ccc(-c2nnc(N)s2)cc1 | – | inconclusive: 9.2 µM [activator, partial curve]
27 | COc1ccc(N2CC(C)Cn3c2nc2c3c(=O)n(Cc3ccc(F)cc3)c(=O)n2C)c(OC)c1 (configuration not stated) | – | active: 16.4 µM
28 | CC1=C(C(=O)Nc2cccc(C(=O)NCc3ccc(F)cc3)c2)SCCO1 | – | inconclusive: 16.4 µM [inhibitor, partial curve, poor fit]
29 | COc1ccc(S(=O)(=O)N2CCCOC2CNC(=O)C(=O)NCc2cccnc2)cc1 (configuration not stated) | inactive: 13.6% | –
30 | C=CCC1(NC(C)c2ccccc2)CCCCC1 (configuration not stated) | – | inconclusive: 16.4 µM [activator, partial curve, poor fit]
31 | C/C(=N\NC(=O)CNC(=O)C(c1ccccc1)c1ccccc1)c1ccc(C(C)(C)C)cc1 | inactive: 18% | –
32 | CCN1CCN(Cc2ccc(OCc3ccccc3)cc2)CC1 | – | inconclusive: 2.82 µM [activator, partial curve, poor fit]
33 | C=CCn1c2ccccc2c2nnc(SCC(=O)Nc3cc(C)on3)nc21 | – | inconclusive: 23.1 µM [inhibitor, partial curve, poor fit]
34 | C=C(C)[C@H]1CC=C(C)/C(=N/NC(=O)CNc2ccccc2OC)C1 | – | inconclusive: 29.1 µM [activator, single point]
35 | O=C(Nc1ccc(F)cc1)c1ccc(Cn2cnnn2)cc1 | inactive: 7.1% | –
36 | CCOc1ccc(NCc2nnc(SCc3ccc(Cl)cc3)n2-c2ccccc2)cc1 | – | inconclusive: 16.4 µM [inhibitor, partial curve]
37 | O=C(CN1C(=O)NC2(CCOc3ccccc32)C1=O)c1ccc(Cl)s1 (configuration not stated) | – | inconclusive: 6.51 µM [activator, single point]
38 | O=C(COc1cccc2ccccc12)N/N=C/C=C/c1ccccc1 | inactive: -1.81% | –
39 | O=C(Cc1cccs1)Nc1cccc(-c2ccc3nncn3n2)c1 | inactive: -27.5% | –
40 | O=C(NCCc1ccccn1)C1CCN(S(=O)(=O)c2ccc3ccccc3c2)CC1 | inactive: 11.7% | –
41 | O=C(NC1CCCCCCC1)c1ccc(Br)o1 | – | inconclusive: 16.4 µM [activator, partial curve]
42 | Cc1ccc2cc(CCNC(=O)C(C)C)c(=O)[nH]c2c1 | – | inconclusive: 18.4 µM [activator, single point]
43 | CCOc1ncccc1C(=O)Nc1cc(S(=O)(=O)N2CCCCC2)ccc1C | inactive: -6.06% | –
44 | COc1cccc(N2CCN(C(=O)c3ccc4nc(N5CCCCC5)sc4c3)CC2)c1 | – | inconclusive: 32.6 µM [inhibitor, single point]
45 | CCc1nc2sc3c(=O)[nH]cnc3c2c2c1CSC(C)(C)C2 | – | inconclusive: 16.4 µM [inhibitor, partial curve, poor fit]
46 | O=C1c2ccccc2-c2onc3ccc(NCc4ccco4)c1c23 | inactive: 0.65% | –
47 | Cc1ccc(NC(=O)COc2ccc(C(=O)c3ccccc3)cc2)c(O)c1 | – | inconclusive: 29.1 µM [inhibitor, single point]
48 | CCn1c(-c2ccsc2)nc2c1c(=O)[nH]c(=O)n2Cc1ccccc1 | inactive: 16.4% | –

Of the compounds above, these contain a halogen.
Row | SMILES | activity change, negative = inhibition | Potency
7 | O=C(CN1CCN(c2ccc(F)cc2)CC1)Nc1cccc(C(F)(F)F)c1 | – | inconclusive: 35.5 µM [inhibitor, single point]
10 | CCCS(=O)(=O)N1CCC(C(=O)c2cccc(C(F)(F)F)c2)CC1 | – | inconclusive: 25.9 µM [inhibitor, single point]
11 | Fc1ccccc1-c1nc2ccccc2[nH]1 | – | inconclusive: 18.3 µM [activator, partial curve]
14 | O=C(c1cc(COc2ccc(F)cc2Cl)on1)N1C[C@H]2CC[C@H]1C2 | – | inconclusive: 18.3 µM [activator, partial curve]
23 | Cn1ccs/c1=N\S(=O)(=O)c1ccc(Br)cc1 | inactive: -9.27% | –
24 | Nc1nonc1C(=O)NCCNCc1c(OCc2ccccc2F)ccc2ccccc12 | – | inconclusive: 18.4 µM [inhibitor, single point]
27 | COc1ccc(N2CC(C)Cn3c2nc2c3c(=O)n(Cc3ccc(F)cc3)c(=O)n2C)c(OC)c1 (configuration not stated) | – | active: 16.4 µM
28 | CC1=C(C(=O)Nc2cccc(C(=O)NCc3ccc(F)cc3)c2)SCCO1 | – | inconclusive: 16.4 µM [inhibitor, partial curve, poor fit]
35 | O=C(Nc1ccc(F)cc1)c1ccc(Cn2cnnn2)cc1 | inactive: 7.1% | –
36 | CCOc1ccc(NCc2nnc(SCc3ccc(Cl)cc3)n2-c2ccccc2)cc1 | – | inconclusive: 16.4 µM [inhibitor, partial curve]
37 | O=C(CN1C(=O)NC2(CCOc3ccccc32)C1=O)c1ccc(Cl)s1 (configuration not stated) | – | inconclusive: 6.51 µM [activator, single point]
41 | O=C(NC1CCCCCCC1)c1ccc(Br)o1 | – | inconclusive: 16.4 µM [activator, partial curve]

(cont.)

Row | SMILES | activity change, negative = inhibition | Potency
49 | O=C(/C=C/c1ccc(Br)cc1)c1ccc(NC2=NCCCS2)cc1 | – | inconclusive: 29.1 µM [inhibitor, single point]
50 | COc1ccccc1CNCC(=O)Nc1ccc(N(C)C)cc1 | – | inconclusive: 20.6 µM [activator, partial curve]
51 | Cc1cccnc1NC(=O)c1sc2ccccc2c1Cl | – | inconclusive: 7.3 µM [activator, partial curve]
52 | CN(CC(=O)Nc1cccc(F)c1)C(=O)c1ccc(-c2cccc(C(F)(F)F)c2)o1 | – | active: 0.291 µM
53 | N/C(=N\OC(=O)c1cccc2ccccc12)c1cccc([N+](=O)[O-])c1 | inactive: 7% | –
54 | COC(=O)C1C(=O)c2c([nH]c(C(=O)OCCSC)c2C)CC1C (configuration not stated) | – | inconclusive: 5.17 µM [activator, partial curve]
55 | O=C(CSc1nnc(NC(=O)Cc2ccccc2)s1)NCC1CCCO1 (configuration not stated) | inactive: 4.91% | –
56 | CCOc1ccccc1N1CC(O)=C(c2nc3ccccc3s2)C1=N | – | active: 16.4 µM
57 | CN1CCN(C(=O)CCCN2C(=O)/C(=C/c3cccc(Br)c3)SC2=S)CC1 | inactive: -5.64% | –
58 | C#CCOCCOCCOCCNc1nc(N2CCN(C(=O)[C@H](Cc3cc4ccccc4[nH]3)n3cc([C@@H](N)Cc4ccc(O)cc4)nn3)CC2)nc(N2CCN(C(=O)[C@H](Cc3cc4ccccc4[nH]3)n3cc([C@@H](N)CC(C)C)nn3)CC2)n1 | – | inconclusive: 29.1 µM [activator, single point]
59 | CCCCc1nc2ccccc2c(NC(=O)CN(CC)CC)c1CCC | – | inconclusive: 29.1 µM [inhibitor, single point]
60 | CCC(C)(O)c1[nH]c2ccc(C(=O)OC)cc2c1C (configuration not stated) | – | inconclusive: 23.1 µM [activator, partial curve, poor fit]
61 | O=C(Cc1ccccc1)Nc1nnc(-c2cccs2)s1 | – | inconclusive: 14.6 µM [activator, partial curve]
62 | Cc1ccc(C)c(NC(=S)NCc2ccccc2)c1 | inactive: -3.77% | –
63 | O=C(c1cc(-c2ccc(Br)cc2)on1)N1CCOCC1 | – | inconclusive: 2.31 µM [activator, full curve]
64 | COc1ccc(-n2nnnc2SCC(=O)Nc2ccc3c(c2)OCCO3)c(OC)c1 | – | active: 20.6 µM
65 | COc1cc(NC(=S)Nc2ccc3c(c2)OCCO3)cc(OC)c1OC | – | inconclusive: 20.6 µM [activator, partial curve]
66 | Fc1ccccc1Cn1c2[n+](c3ccc(C(F)(F)F)cc31)CCCCC2 | – | inconclusive: 9.2 µM [inhibitor, partial curve]
67 | Nc1nnc(SCC(=O)Nc2ccc(N3CCOCC3)c(Cl)c2)s1 | inactive: 20.9% | –
68 | Cc1ccc(C(=O)/C=C/NCc2ccc(F)cc2)cc1 | – | inconclusive: 20.6 µM [activator, partial curve]
69 | CCn1c2ccccc2c2cc(NC(=O)CSc3nnc(-c4cccc(C)c4)o3)ccc21 | – | inconclusive: 16.4 µM [inhibitor, single point]
70 | CCOC(=O)C1CCCN(C/C=C/c2ccccc2)C1 (configuration not stated) | inactive: -2.93% | –
71 | O=C(c1ccco1)N1CCN(CC(O)COc2ccc3oc4ccccc4c3c2)CC1 (configuration not stated) | – | inconclusive: 32.6 µM [inhibitor, single point]
72 | Cc1csc(NC(=O)C2CCN(S(=O)(=O)c3ccc4c(c3)oc(=O)n4C)CC2)n1 | – | inconclusive: 29.1 µM [inhibitor, single point]

— PubChem BioAssay AID504467 (National Center for Advancing Translational Sciences (NCATS), 2011)
